# About 6,500 (11%) of roughly 59,000 compounds were called active. Inconclusive means that the source gave no clear call. Such entries were picked first, then a sample of the others. Rule as the data show it: active = max dye-equivalent concentration above about 10 nM; inconclusive = mostly about 1.1 nM to 9.6 nM; inactive = weaker than that.
# Experiment: qHTS Assay for Spectroscopic Profiling in A350 Spectral Region
# Conditions: Compound autofluorescence, 340/450 nm, Alexa 350 dye-equivalents; active compounds read high
# Excerpt: NIH Molecular Libraries Screening Centers Network [MLSCN]
# NIH Chemical Genomics Center [NCGC]
# Occasionally, the artifactual effect may originate from the compounds own spectral or other biophysical properties which generally tend to track its assay concentration. Pre-screening/profiling the library with respect to the compounds spectral properties should help one exclude false positives early on. While the most informative fluorescent profiling data set is obtained by performing a full excitation and emission scan of each well by using a monochromator-based plate reader, such an approach is practical only on a very limited scale as scanning each well requires long time. An alternative approach, applied here, is to perform plate reader scans using selected excitation and emission wavelength pairs to generate a multidimensional relational database that correlates compound concentration and the respective relative fluorescence intensity at a given wavelength set. A standard curve of Alexa 350 (A 350) present on each plate as six-point concentration series, was used to compute a normalized fluorescence response, termed dye-equivalent concentration, for each compound at each concentration.
# NCGC Assay Protocol Summary:
# 100 mM Tris buffer, pH 8.0
# The wells in columns 1 through 4 of a Kalypsys polypropylene 1536-well compound plate were filled with standard solutions of fluorophore corresponding to the spectral region of interest. Solutions of A 350 were placed in the following wells: I1, J1: 3 mM, I2, J2: 300 uM, I3, J3: 30 uM, I4, J4: zero (DMSO), K1, L1: 3 uM, K2, L2: […], K3, L3: 300 nM, K4, L4: zero (DMSO).
# Six uL of buffer were dispensed to 1536-well Greiner black plates. Compounds and dye standards (23 nL) were transferred via Kalypsys PinTool. The plates were incubated for 15 min at room temperature, and then read on ViewLux (Perkin-Elmer) High-throughput CCD imager using 340 nm and 450 nm excitation and emission filter set.
# Keywords: NIH Roadmap, MLSCN, MLI, MLSMR, qHTS, NCGC, A350, A-350, Fluorescent Profiling.
row,Compound,max dye-equivalent concentration
1,Cc1ccc(-c2cn3cccnc3n2)cc1NC(=O)c1c(-c2ccccc2Cl)noc1C,active: 930 nM
2,CC1(C)CC(=O)c2sc(NS(=O)(=O)Cc3ccccc3)nc2C1,inconclusive: 3.9 nM
3,CCC(=O)Nc1sc(C(=O)OC)c(C)c1C(=O)OC,inconclusive: 2.2 nM
4,COc1ccc(/C(O)=C2/C(=O)C(=O)N(CC3CCCO3)C2c2cccc(OC)c2)cc1 (stereo unspecified),inconclusive: 1.9 nM
5,COc1ccccc1NC(=O)CCNC(=O)Cn1ccc2ccccc2c1=O,inconclusive: 6.6 nM
6,O=C(NC1CCCCC1)c1cccnc1C(=O)O,inactive
7,NC(=O)C1CCN(C(=O)CN2CCCc3ccccc32)CC1,inconclusive: 1.9 nM
8,CCC(c1nnc(SCc2nc3ccccc3s2)n1Cc1ccccc1)N(C)C (stereo unspecified),inconclusive: 1.2 nM
9,COC(=O)c1ccc(C2/C(=C(\O)c3ccc4c(c3)OCCO4)C(=O)C(=O)N2CCCN(C)C)cc1 (stereo unspecified),inconclusive: 2.2 nM
10,COc1nc(OC)nc(N2CCC(NC(=O)C(Cc3ccc(C(C)C)cc3)NC(C)=O)CC2)n1 (stereo unspecified),inconclusive: 1.3 nM
11,CN1CCN(c2ncc3nc(CCc4ccccc4)c(=O)n(Cc4ccc(F)cc4)c3n2)CC1,inconclusive: 5.6 nM
12,O=C(CN(Cc1ccco1)C(=O)c1cc(=O)[nH]c2ccccc12)Nc1ccccc1Br,inconclusive: 3.2 nM
13,CCOC(=O)N1CCN(CC(O)c2ccc3c(c2)CCN3)CC1 (stereo unspecified),inconclusive: 1.5 nM
14,COC(=O)c1[nH]c2cc(OC)c(OC)cc2c1NC(=O)c1cccc(OC)c1,inactive
15,CC1=C(\C=C/C(C)=C/C=C\C(C)=C\C(=O)O)C(C)(C)CCC1,inconclusive: 1.7 nM
16,O=C(NCc1cccnc1)c1cccc(C(F)(F)F)c1,inactive
17,CCOC(=O)C(NS(=O)(=O)c1ccc(Br)cc1)C(C)C (stereo unspecified),inconclusive: 7.5 nM
18,Cc1cccc(N2C(=O)CC(Sc3nc(C)c4c(n3)CCCC4)C2=O)c1 (stereo unspecified),inconclusive: 9.3 nM
19,Cc1cc(N2CCCCC2)n2ncc(-c3ccc(Cl)cc3)c2n1,active: 380 nM
20,O=C(c1cccc(F)c1)N1CCC2(CC1)CN(c1ncccn1)C2,inactive
21,COc1cc2cc3c(N)c(C(=O)NCc4ccco4)sc3nc2cc1OC,inactive
22,CC(=O)c1cccc(NC(=O)N2CCCC2C(=O)Nc2cccc(C)c2C)c1 (stereo unspecified),inconclusive: 1.5 nM
23,c1ccc(CNc2ccnc(-c3cccnc3)n2)cc1,inactive

row,Compound,max dye-equivalent concentration
1,O=c1oc(Cl)c(Cl)c2ccccc12,inconclusive: 2.2 nM
2,COCC(=O)/C=C1\Sc2ccccc2N1C,inconclusive: 4.8 nM
3,O=C(C1CCN(c2nnnn2-c2ccccc2)CC1)N1CCN(c2ccccc2)CC1,inconclusive: 3.4 nM
4,CC(C)(C)c1cc(CNC2CS(=O)(=O)C[C@@H]2O)cc(C(C)(C)C)c1O (stereo partly specified),inconclusive: 1.2 nM
5,CN(C)S(=O)(=O)Nc1ccccc1C(N)=O,active: 22 nM
6,CNc1oc(-c2ccc(OCc3ccccc3)cc2)nc1C#N,inactive
7,CCN(CC)CCN1C(=O)c2oc3ccccc3c(=O)c2C1c1ccc(F)cc1 (stereo unspecified),inconclusive: 7 nM
8,CN(c1ccccc1C(=O)NCc1ccccn1)S(C)(=O)=O,inconclusive: 1.3 nM
9,COc1ccc(Cl)cc1C(=O)NCC(c1ccco1)N1CCCC1 (stereo unspecified),inactive
10,COCC(=O)Nc1cc(OC)c(Cl)cc1OC,inconclusive: 1.9 nM
11,Cc1nc(N2CCN(c3ncccn3)CC2)c2oc3ccccc3c2n1,inactive
12,CC(=O)Nc1c(OC(C)=O)ccc2c(C)cc(=O)oc12,active: 1500 nM
13,CCCn1c(SCC(=O)Nc2cccc(C)n2)nnc1-c1ccco1,inactive
14,COc1ccccc1NC(=O)CC1C(=O)Nc2c1c(=O)n(C)c(=O)n2C (stereo unspecified),inactive
15,CCOC(=O)c1cc(-c2ccco2)nc2c1c(C)nn2CCC#N,active: 300 nM
16,CC1=Nc2ccccc2NC(=O)C1Sc1nnc(C)s1 (stereo unspecified),inconclusive: 2.8 nM
17,O=c1oc2c(CN3CCCCC3)c(O)ccc2c2c1CCCCC2,active: 13000 nM
18,Nc1ccn([C@@H]2CC[C@H](CO)O2)c(=O)n1,inactive
19,O=C(O)CS(=O)c1ccc2c3c(cccc13)C(=O)c1ccccc1-2 (stereo unspecified),inconclusive: 2.6 nM
20,O=C(NCCN1CCN(c2ccccc2)CC1)c1cccn2c(=O)c3ccccc3nc12,inconclusive: 4.5 nM
21,Cc1cccc(CSc2nnc(-c3ccccn3)n2N)c1,active: 99 nM
22,Nc1cc(-c2nn[nH]n2)ccc1F,inconclusive: 1.5 nM
23,COc1cccc(-c2nnc(SCC(=O)Nc3cc(C)ccc3OC)n2N)c1,inactive

# Some values from the entries so far:
# Nc1cc(-c2nn[nH]n2)ccc1F | max dye-equivalent concentration: inconclusive: 1.5 nM
# COCC(=O)/C=C1\Sc2ccccc2N1C | max dye-equivalent concentration: inconclusive: 4.8 nM

# — PubChem BioAssay AID590 (National Center for Advancing Translational Sciences (NCATS), 2007)
